Results are given in words; binding and its absence hold for the method and conditions named. Some entries that bind do so weakly or less than the wild type.
T1: MT1−MMPヒンジ領域ペプチド (mouse)
T1 sequence (peptide): PQPRTTSRPSVPDKPKNC


Target: T1, MT1−MMPヒンジ領域ペプチド (mouse)
Test: indirect competition ELISA, hybridoma supernatant, free hinge peptide against immobilised immunogen

| binding | Binder |
| --- | --- |
| binds | ハイブリドーマ66Cで生成した抗体(抗体K9E) (antibody, V domains shown) VH: QIQLVQSGPELKKPGETVKISCKASGYTFTSYALHWVKQAPGKGLKWMGWKYTNTGEPTYGDDFKGRFAFSLETSASTAYLQINNLKNEDMATYFCARGGLSSYAMDYWGQGTSVTVSS VL: DIVMSQSPSSLAVSAGEKVTMSCKSSQSLLNSRTRKNYLAWYQQKPGQSPKLLIYWASTRESGVPDRFTGTGSGTDFTLTISSVQAEDLAVYYCKQSYNLLVTFGAGTKLELKR |
| binds | 抗MT1−MMP抗体MMPK9I (ハイブリドーマ19Bが産生する抗体IgG) (antibody, V domains shown) VH: QVQLQQSGAELVRPGASVTLSCKASGYRFTDYEMHWVRQTPVHGLEWIGAIDPETGGTAYNQKFKGKATLTEDKSSSTAYMELRSLTSEDSAVYYCTTMITTALDYWGQGTSVTVSS VL: DVLMTQTPLSLPVSLGDQASISCRSSQSIVHSDGNTYLEWYLQKPGQSPKVLIYKVSNRFSGVPDRFSGSGSGTDFTLKITRVEAEDLGVYYCFQGSHVPYTFGGGTKLEIKR |

Source: JP2012115243A
